## Library screen at single concentrations

Sequences of proteins named here, by UniProt entry; tags and fusion partners are left off. Residues count along the entry.
UniProt Q8IDJ8, 1-583: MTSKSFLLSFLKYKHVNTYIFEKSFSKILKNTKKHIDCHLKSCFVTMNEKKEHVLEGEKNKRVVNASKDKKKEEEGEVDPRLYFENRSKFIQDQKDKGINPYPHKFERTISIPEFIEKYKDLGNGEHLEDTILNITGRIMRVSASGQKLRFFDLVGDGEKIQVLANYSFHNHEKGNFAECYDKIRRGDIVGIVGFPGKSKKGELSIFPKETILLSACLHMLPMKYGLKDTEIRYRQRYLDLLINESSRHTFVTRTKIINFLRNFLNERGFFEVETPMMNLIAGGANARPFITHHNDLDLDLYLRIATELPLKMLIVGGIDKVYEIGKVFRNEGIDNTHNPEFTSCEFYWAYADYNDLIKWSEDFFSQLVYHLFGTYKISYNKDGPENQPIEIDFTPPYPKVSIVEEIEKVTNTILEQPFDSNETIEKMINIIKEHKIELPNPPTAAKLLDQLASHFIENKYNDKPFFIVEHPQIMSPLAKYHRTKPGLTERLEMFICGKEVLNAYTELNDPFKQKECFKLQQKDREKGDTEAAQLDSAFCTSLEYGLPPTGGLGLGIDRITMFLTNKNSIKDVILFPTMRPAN
UniProt P9WPC5, whole entry: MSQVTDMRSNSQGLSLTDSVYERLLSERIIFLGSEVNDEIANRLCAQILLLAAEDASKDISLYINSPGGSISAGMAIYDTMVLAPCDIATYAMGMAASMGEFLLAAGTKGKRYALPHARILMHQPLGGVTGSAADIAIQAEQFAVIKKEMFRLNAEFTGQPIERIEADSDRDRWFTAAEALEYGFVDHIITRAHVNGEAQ
UniProt P9WPC3, whole entry partner: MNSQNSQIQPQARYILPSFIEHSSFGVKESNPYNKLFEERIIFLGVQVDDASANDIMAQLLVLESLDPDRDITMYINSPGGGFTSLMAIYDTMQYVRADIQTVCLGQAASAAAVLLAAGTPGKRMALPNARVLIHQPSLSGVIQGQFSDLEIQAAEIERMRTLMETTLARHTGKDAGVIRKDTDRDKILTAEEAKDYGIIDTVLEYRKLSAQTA
UniProt P9WFT3, whole entry: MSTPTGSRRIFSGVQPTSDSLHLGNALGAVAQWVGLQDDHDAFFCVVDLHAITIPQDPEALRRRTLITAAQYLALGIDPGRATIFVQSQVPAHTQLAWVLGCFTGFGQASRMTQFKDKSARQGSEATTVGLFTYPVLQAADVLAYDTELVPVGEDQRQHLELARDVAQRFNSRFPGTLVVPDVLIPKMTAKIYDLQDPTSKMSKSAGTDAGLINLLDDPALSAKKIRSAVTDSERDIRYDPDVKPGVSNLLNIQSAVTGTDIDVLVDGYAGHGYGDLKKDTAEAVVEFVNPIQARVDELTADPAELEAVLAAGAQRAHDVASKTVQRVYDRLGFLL

Source: ChEMBL document CHEMBL3988442, “University of Dundee, Small-Polar-MMV Screening Library” (2021).

PfKRS1: 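Lysine-tRNA ligase, Plasmodium falciparum 3D7 (UniProt Q8IDJ8). Enzyme assay of the cytosolic lysyl-tRNA synthetase in 384-well plates, read by luminescence. Compounds at 30 µM. Higher reads as stronger inhibition, judged from the few compounds that gave an IC50. About 69,000 compounds were tested under these conditions; 0.071% (about 49) showed 50% or more at least once.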
ClpP1P2: 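ClpP1P2, Mycobacterium tuberculosis (UniProt P9WPC5 and UniProt P9WPC3). Protease assay of ClpP1P2, read by the AMC dye that it sets free. Concentration: 50 µM. Direction is inferred from only a few compounds that gave an IC50; most scored high, so higher reads as stronger inhibition. Most other retested compounds had strongly negative values. Size under these conditions: about 69,000 compounds, about 10 of them at 50% or above in at least one test.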
MtTrpRS: 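Tryptophan-tRNA ligase, Mycobacterium tuberculosis (UniProt P9WFT3). Enzyme assay of tryptophanyl-tRNA synthetase; the read-out is not stated. Concentration: 10 µM. Higher most likely means stronger inhibition; the record gives no direction and few retests gave an IC50. About 65,000 compounds were tested under these conditions; 0.098% (about 64) showed 50% or more at least once.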

Values are the deposited “Percent Effect”, in %. The controls that fix the scale are not given in the record; negative values are as filed. The compounds are a random part of those screened. A dash means the value is not listed here; it may have been measured.

structure | PfKRS1 | ClpP1P2 | MtTrpRS
Cc1n[nH]c(C)c1NC(=O)CN(CC(O)c1ccc(F)cc1)C1CC1 (centres undefined) | 2.882 | -5.898 | -0.7452
Cc1ccc(N2CC[C@@H]3O[C@@H](c4ccncn4)C[C@H]3C2)nn1 | 3.966 | 10.64 | 0.07052
CCn1cc(NC(=O)C2CCN(Cc3noc(C(C)C)n3)CC2)cn1 | 6.751 | 4.583 | -3.411
CN(CCc1cn[nH]c1)Cc1nc(Cc2cccc(C(F)(F)F)c2)no1 | 5.944 | -15.59 | 5.354
Cn1nc2c(cc1=O)CN(Cc1coc(-c3ccc(F)cc3)n1)CC2 | -1.447 | -31.42 | 14.41
CCc1c(C)sc2c1c(N)nc(=O)n2CCN(C)C | 2.338 | 12.74 | -2.832
CNC(=O)c1cc2c(nc1NCC1CC1)CCNCC2 | 3.844 | -72.12 | 0.7229
O=C1CC2(CCN(c3nccc(-c4cc(C(=O)O)ccn4)n3)CC2)CN1 | 6.509 | -3.601 | 0.3425
Cc1cnn(C2CN(CC(=O)NCCCc3ccccc3)C2)c1 | -3.043 | 13.83 | 9.605
CN(Cc1ccc(-n2cccn2)cc1)c1nc(N)nc2c1CCNCC2 | 2.62 | -12.12 | -0.07886
COc1ccc(C(=O)N2CCOc3ccncc32)cc1 | 3.416 | 2.166 | 0.1805
O=C(COC1CCCC1)Nc1ncn(CC(=O)N2CCCCCC2)n1 | 0.7738 | -23.25 | -7.488
Cn1c(=O)[nH]c(=O)c2c1nc1n2CC(c2ccc(Cl)cc2)O1 (centres undefined) | -2.538 | 28.96 | -0.571
COc1ccc(C(=O)N(c2ccc(OC)c(F)c2)C(C)C)cn1 | 0.4882 | 1.787 | 0.4914
CCn1cnnc1CNC(=O)N1CCN(c2ccccc2O)CC1 | 0.5187 | 9.066 | 5.842
CC(C)Sc1nnc(CCNC(=O)OC(C)(C)C)o1 | -2.88 | 13.83 | 1.809
CN1Cc2c(C(=O)N3CCOCC3)ncn2-c2ccccc2S1(=O)=O | -1.196 | -0.4746 | 0.7757
CC(C)NC(=O)[C@H]1CN(Cc2ccccc2)C[C@@H]1C(=O)c1ccccc1 | 1.851 | -17.09 | 0.718
Cc1cc(NS(=O)(=O)c2cccs2)ccc1-n1cccc1C(=O)O | 0.5261 | -5.757 | -2.534
Cc1cccc(COc2ccccc2C(=O)N2CCC(C(N)=O)CC2)c1 | 2.989 | -0.1475 | 5.393
Cc1cnn(C2CN(Cc3noc(C)n3)C2)c1 | 1.433 | -7.877 | 2.341
c1ccc(-c2nc(CNCCn3cccn3)cs2)nc1 | -1.239 | -14.59 | 11.63
Cc1cccc(C)c1OCCCN1CCN(CC2CCCO2)CC1 (centres undefined) | -4.826 | 0.4731 | 1.955
CC(C)NS(=O)(=O)c1cc(C(=O)O)cc(-c2ccccc2CO)c1 | -1.279 | 4.487 | 2.375
CC(C)(C)c1nc(CN2CCCC2c2nnc3ccccn23)no1 (centres undefined) | 1.83 | -10.92 | -2.448
Cc1cccc(OC2CCN(C(=O)NCCn3ccnc3)CC2)c1C | 8.965 | 1.529 | -3.757
Cc1cccc(CN2CCC3(CCCN(Cc4cnn(C)c4)C3)C2=O)n1 (centres undefined) | 4.482 | -6.492 | -4.521
CC(C)CCN1CCN(C(=O)c2cccnc2-n2cncn2)CC1 | 6.156 | 1.408 | -0.08818
Cc1nc(C2CCCNC2)nc2c1CCCN2Cc1ccccn1 (centres undefined) | 1.273 | 1.246 | -4.631
Cc1ccc(C2CSCCN2C(=O)c2cc(C(N)=O)cs2)o1 (centres undefined) | 10.42 | 7.261 | -2.25
O=C(O)c1ccn(-c2ccc(NC(=O)c3ccccc3Cl)cc2)n1 | -7.747 | 0.5462 | -3.128
CC(NC(=O)CN1CCCC1=O)c1ccc(Cl)s1 (centres undefined) | 6.452 | 9.468 | -4.722
CCN1CCCC(NC(=O)CCn2c(C(F)F)cc3cccnc32)C1 (centres undefined) | 0.5014 | -10.8 | -8.314
Cc1cc(NC(=O)C2CN(Cc3ccccc3)CCO2)ccn1 (centres undefined) | 2.859 | 11.31 | 1.955
CN(C)CCN1CCOCC2(CCN(Cc3ccc[nH]3)CC2)C1 | 4.009 | 6.297 | 3.198
CN1CCN(C(=O)c2cn3ccsc3n2)[C@H]2CS(=O)(=O)C[C@H]21 | 4.135 | -5.483 | 10.2
Cc1ccccc1N1CCN(C(=O)c2ncc(F)cc2F)C(C)C1 (centres undefined) | 13.09 | 8.297 | -2.916
Cc1cc(NCCNc2ncccc2C)n2nc(C)cc2n1 | 1.258 | 3.995 | 3.689
CC(C)(C)C(=O)NCCC(=O)NC(C)(C)c1ccc2c(c1)OCO2 | 4.715 | -9.481 | 0.7101
O=C1C[C@H]2[C@H](CCN2Cc2ccccn2)N1CC1CC1 | 6.706 | 2.384 | 3.435
Cc1n[nH]c(C)c1CC(=O)N1CC[C@@](C)(O)[C@@H](Cc2ccccc2)C1 | 3.402 | -4.146 | 1.459
Cc1cccc(CN2CC[C@@H]3O[C@@H](C(=O)N4CCN(C)CC4)C[C@@H]32)n1 | 4.46 | -16.2 | -
Cc1ccccc1CNC(=O)N1C[C@H]2C[C@H](C(=O)N3CCCC3)[C@@H](C1)O2 | 3.012 | 1.93 | -2.164
Cc1cc(C)nc(N2CCC(C(=O)Nc3ncc[nH]3)CC2)n1 | 5.157 | -4.58 | 1.699
COC(=O)N1CCCC(C(=O)N2CCCCC2)C1 (centres undefined) | 6.477 | -5.337 | -0.2973
CC(=O)N(C)Cc1ccccc1NCc1c(C)noc1C | 5.431 | 9.066 | -5.247
Cc1ccc(OCc2occc2C(=O)O)cc1 | 2.2 | -2.628 | -14.69
Cn1[nH]c(Br)c2/c(=N\CCN)ncnc1-2 | -0.09442 | -3.836 | 2.847

The last 4 entries again:

{"structure": "COC(=O)N1CCCC(C(=O)N2CCCCC2)C1", "stereo": "centres undefined", "PfKRS1": 6.477, "ClpP1P2": -5.337, "MtTrpRS": -0.2973}
{"structure": "CC(=O)N(C)Cc1ccccc1NCc1c(C)noc1C", "PfKRS1": 5.431, "ClpP1P2": 9.066, "MtTrpRS": -5.247}
{"structure": "Cc1ccc(OCc2occc2C(=O)O)cc1", "PfKRS1": 2.2, "ClpP1P2": -2.628, "MtTrpRS": -14.69}
{"structure": "Cn1[nH]c(Br)c2/c(=N\\CCN)ncnc1-2", "PfKRS1": -0.09442, "ClpP1P2": -3.836, "MtTrpRS": 2.847}